Experimental data taken from PMC5949353.
No constants are given. Whether binding was seen depends on the method and setting. In cells and extracts the contact can be indirect. Binding can be weak; no strength is given.

Amino acid sequences for entries named in this document (tags omitted). A change or cut given only in a name is not applied to a line headed by its entry.
UniProt Q9BST9: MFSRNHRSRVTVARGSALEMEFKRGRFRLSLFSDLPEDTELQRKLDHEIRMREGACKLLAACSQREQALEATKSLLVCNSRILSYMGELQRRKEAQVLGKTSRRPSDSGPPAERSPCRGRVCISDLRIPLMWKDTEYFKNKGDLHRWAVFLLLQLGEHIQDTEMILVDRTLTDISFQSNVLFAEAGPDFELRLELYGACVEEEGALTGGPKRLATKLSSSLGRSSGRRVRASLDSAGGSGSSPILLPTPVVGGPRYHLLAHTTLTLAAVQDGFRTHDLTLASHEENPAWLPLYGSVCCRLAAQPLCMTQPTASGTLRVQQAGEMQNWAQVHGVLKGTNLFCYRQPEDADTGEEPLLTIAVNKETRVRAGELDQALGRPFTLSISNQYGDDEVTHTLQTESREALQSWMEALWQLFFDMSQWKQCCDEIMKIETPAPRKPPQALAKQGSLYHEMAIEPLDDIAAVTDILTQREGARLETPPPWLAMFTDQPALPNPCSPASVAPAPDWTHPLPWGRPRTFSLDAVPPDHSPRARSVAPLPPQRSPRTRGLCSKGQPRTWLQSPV
UniProt Q13153: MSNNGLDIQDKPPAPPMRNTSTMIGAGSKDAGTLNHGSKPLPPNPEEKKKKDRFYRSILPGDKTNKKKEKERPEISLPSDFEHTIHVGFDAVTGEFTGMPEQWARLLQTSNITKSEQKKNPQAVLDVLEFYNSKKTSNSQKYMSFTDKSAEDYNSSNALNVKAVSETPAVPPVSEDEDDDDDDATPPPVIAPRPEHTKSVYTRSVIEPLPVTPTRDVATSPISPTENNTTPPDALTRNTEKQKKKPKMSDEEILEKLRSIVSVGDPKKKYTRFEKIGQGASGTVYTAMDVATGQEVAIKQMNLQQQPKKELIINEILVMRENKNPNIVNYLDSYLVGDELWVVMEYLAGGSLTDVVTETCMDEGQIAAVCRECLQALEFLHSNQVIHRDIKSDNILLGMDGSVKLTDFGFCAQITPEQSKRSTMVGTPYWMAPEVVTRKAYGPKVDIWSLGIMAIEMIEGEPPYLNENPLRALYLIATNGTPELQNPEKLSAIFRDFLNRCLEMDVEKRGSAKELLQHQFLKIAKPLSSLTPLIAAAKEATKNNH
UniProt Q9QUI0: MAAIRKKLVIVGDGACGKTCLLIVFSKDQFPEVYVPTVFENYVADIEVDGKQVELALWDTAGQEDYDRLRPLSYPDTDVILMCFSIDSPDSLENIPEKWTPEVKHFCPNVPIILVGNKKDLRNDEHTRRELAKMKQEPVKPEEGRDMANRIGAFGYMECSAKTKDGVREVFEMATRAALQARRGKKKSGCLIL
UniProt P60766: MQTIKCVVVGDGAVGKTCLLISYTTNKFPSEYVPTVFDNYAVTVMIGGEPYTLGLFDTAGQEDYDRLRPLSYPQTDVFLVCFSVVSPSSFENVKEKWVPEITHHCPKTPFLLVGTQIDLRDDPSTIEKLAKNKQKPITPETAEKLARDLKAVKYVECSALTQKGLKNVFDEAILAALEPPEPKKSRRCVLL

Legend:
[1] = target: GST-RHOTEKIN (recombinant protein with the binding domain from Rhotekin) (UniProt Q9BST9); assay: pull-down; GST-PAK, GST-RTKN or GST on glutathione-agarose beads incubated overnight at 4°C with lysates of E16 cortices from WT or C3 KO embryos (50 mM Tris-HCl pH 7.5, 150 mM NaCl, 1 mM EDTA, 1 mM EGTA, 1% Triton X-100); washed three times with NETN buffer; western blot; only the target purified
[2] = target: GST-P21 activated kinase (recombinant protein with the binding domain from PAK1) (UniProt Q13153); assay: as above

Substance | binding [1] | binding [2]
RhoA (from UniProt Q9QUI0 1-193) | binds | –
Cdc42 (from UniProt P60766 1-191) | – | binds
